# Source: the supplement of paper PMC8728848
# This is one part of the list.
# B1: SJCP3842 (Schistosoma japonicum) (protein)
# chain: MFKMRIINLVNISTVLLLINLLQTKSRLVGKENGFMLTVSIYGAQLSDKMTSVPVSWTIDYEDPEKSAFKKLVTDSCDTFSEYVKSQIPKGSVDGQCTSHIFQRPGSGSGVSISLTLSFIYVDVTQPDTVALKTELEKHFANFVTIHSHKITQAQFRINQKAIVIPTGDKDAIDGSKWKIIAIIALVALAIVVIGGFIYICVK
# Experiments:
# Experiment in all cases: glycan array binding signal (z-score within array); higher = stronger binding
# Settings in all cases: glycan notation: IUPAC condensed, linker removed
# [1] = target: Neu5Ac(a2-3)Gal(b1-3)GalNAc
# In short: (§1)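 The Consortium for Functional Glycomics database supplied 3228 glycan arrays, of which those lacking an available protein sequence were dropped. The binding signal, a within-array Z-score, was averaged across arrays of the same protein sequence and across linkers. Negative scores can be read as non-binding.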
# [2] = target: Neu5Ac(a2-3)Gal(b1-3)GalNAc(b1-3)Gal(a1-4)Gal(b1-4)Glc
# In short: as §1
# [3] = target: Neu5Ac(a2-3)Gal(b1-3)GalNAc(b1-4)Gal(b1-4)Glc
# In short: as §1
# [4] = target: Neu5Ac(a2-3)Gal(b1-3)GalNAc(b1-4)[Neu5Ac(a2-3)]Gal(b1-4)Glc
# In short: as §1
# [5] = target: Neu5Ac(a2-3)Gal(b1-3)GalNAc(b1-4)[Neu5Ac(a2-8)Neu5Ac(a2-3)]Gal(b1-4)Glc
# In short: as §1
# [6] = target: Neu5Ac(a2-3)Gal(b1-3)GalNAc6S
# In short: as §1
# [7] = target: Neu5Ac(a2-3)Gal(b1-3)GlcNAc
# In short: as §1
# [8] = target: Neu5Ac(a2-3)Gal(b1-3)GlcNAc(b1-2)Man
# In short: as §1
# [9] = target: Neu5Ac(a2-3)Gal(b1-3)GlcNAc(b1-2)Man(a1-3)[GlcNAc(b1-4)][Neu5Ac(a2-3)Gal(b1-3)GlcNAc(b1-2)Man(a1-6)]Man(b1-4)GlcNAc(b1-4)GlcNAc
# In short: as §1
# [10] = target: Neu5Ac(a2-3)Gal(b1-3)GlcNAc(b1-2)Man(a1-3)[Neu5Ac(a2-3)Gal(b1-3)GlcNAc(b1-2)Man(a1-6)]Man(b1-4)GlcNAc(b1-4)GlcNAc
# In short: as §1
# [11] = target: Neu5Ac(a2-3)Gal(b1-3)GlcNAc(b1-2)[Neu5Ac(a2-3)Gal(b1-3)GlcNAc(b1-4)]Man(a1-6)[Neu5Ac(a2-3)Gal(b1-3)GlcNAc(b1-2)Man(a1-3)]Man(b1-4)GlcNAc(b1-4)GlcNAc
# In short: as §1
# [12] = target: Neu5Ac(a2-3)Gal(b1-3)GlcNAc(b1-3)Gal(b1-3)GlcNAc
# In short: as §1
# [13] = target: Neu5Ac(a2-3)Gal(b1-3)GlcNAc(b1-3)Gal(b1-4)GlcNAc
# In short: as §1
# [14] = target: Neu5Ac(a2-3)Gal(b1-3)GlcNAc(b1-3)GalNAc
# In short: as §1
# [15] = target: Neu5Ac(a2-3)Gal(b1-3)GlcNAc(b1-6)GalNAc
# In short: as §1
# [16] = target: Neu5Ac(a2-3)Gal(b1-3)GlcNAc6S
# In short: as §1
# [17] = target: Neu5Ac(a2-3)Gal(b1-3)[Fuc(a1-4)]GlcNAc
# In short: as §1
# [18] = target: Neu5Ac(a2-3)Gal(b1-3)[Fuc(a1-4)]GlcNAc(b1-3)Gal(b1-3)[Fuc(a1-4)]GlcNAc
# In short: as §1
# [19] = target: Neu5Ac(a2-3)Gal(b1-3)[Fuc(a1-4)]GlcNAc(b1-3)Gal(b1-4)[Fuc(a1-3)]GlcNAc
# In short: as §1
# [20] = target: Neu5Ac(a2-3)Gal(b1-3)[GlcNAc(b1-6)]GalNAc
# In short: as §1
# [21] = target: Neu5Ac(a2-3)Gal(b1-3)[Neu5Ac(a2-6)]GalNAc
# In short: as §1
# [22] = target: Neu5Ac(a2-3)Gal(b1-3)[Neu5Ac(a2-6)]GlcNAc(b1-3)[Fuc(a1-3)[Gal(b1-4)]GlcNAc(b1-6)]Gal(b1-4)Glc
# In short: as §1
# [23] = target: Neu5Ac(a2-3)Gal(b1-3)]Neu5Ac(a2-3)Gal(b1-4)]GlcNAc
# In short: as §1
# Neu5Ac(a2-3)Gal(b1-4)Glc = target: Neu5Ac(a2-3)Gal(b1-4)Glc
# In short: as §1
# [24] = target: Neu5Ac(a2-3)Gal(b1-4)GlcNAc
# In short: as §1
# [25] = target: Neu5Ac(a2-3)Gal(b1-4)GlcNAc(b1-2)Man
# In short: as §1
# [26] = target: Neu5Ac(a2-3)Gal(b1-4)GlcNAc(b1-2)Man(a1-3)[GlcNAc(b1-4)][Neu5Ac(a2-3)Gal(b1-4)GlcNAc(b1-2)Man(a1-6)]Man(b1-4)GlcNAc(b1-4)GlcNAc
# In short: as §1
# [27] = target: Neu5Ac(a2-3)Gal(b1-4)GlcNAc(b1-2)Man(a1-3)[Neu5Ac(a2-3)Gal(b1-4)GlcNAc(b1-2)Man(a1-6)]Man(b1-4)GlcNAc(b1-4)GlcNAc
# In short: as §1
# [28] = target: Neu5Ac(a2-3)Gal(b1-4)GlcNAc(b1-2)Man(a1-3)[Neu5Ac(a2-3)Gal(b1-4)GlcNAc(b1-2)Man(a1-6)]Man(b1-4)GlcNAc(b1-4)[Fuc(a1-6)]GlcNAc
# In short: as §1
# [29] = target: Neu5Ac(a2-3)Gal(b1-4)GlcNAc(b1-2)Man(a1-3)[Neu5Ac(a2-6)Gal(b1-4)GlcNAc(b1-2)Man(a1-6)]Man(b1-4)GlcNAc(b1-4)GlcNAc
# In short: as §1
# [30] = target: Neu5Ac(a2-3)Gal(b1-4)GlcNAc(b1-2)[Neu5Ac(a2-3)Gal(b1-4)GlcNAc(b1-4)]Man(a1-3)[GlcNAc(b1-4)][Neu5Ac(a2-3)Gal(b1-4)GlcNAc(b1-2)[Neu5Ac(a2-3)Gal(b1-4)GlcNAc(b1-6)]Man(a1-6)]Man(b1-4)GlcNAc(b1-4)GlcNAc
# In short: as §1
# [31] = target: Neu5Ac(a2-3)Gal(b1-4)GlcNAc(b1-2)[Neu5Ac(a2-3)Gal(b1-4)GlcNAc(b1-4)]Man(a1-3)[GlcNAc(b1-4)][Neu5Ac(a2-3)Gal(b1-4)GlcNAc(b1-4)Man(a1-6)]Man(b1-4)GlcNAc(b1-4)GlcNAc
# In short: as §1
# [32] = target: Neu5Ac(a2-3)Gal(b1-4)GlcNAc(b1-2)[Neu5Ac(a2-3)Gal(b1-4)GlcNAc(b1-6)]Man(a1-6)[Neu5Ac(a2-3)Gal(b1-4)GlcNAc(b1-2)Man(a1-3)][GlcNAc(b1-4)]Man(b1-4)GlcNAc(b1-4)GlcNAc
# In short: as §1
# [33] = target: Neu5Ac(a2-3)Gal(b1-4)GlcNAc(b1-3)Gal
# In short: as §1
# [34] = target: Neu5Ac(a2-3)Gal(b1-4)GlcNAc(b1-3)Gal(b1-3)GlcNAc
# In short: as §1
# [35] = target: Neu5Ac(a2-3)Gal(b1-4)GlcNAc(b1-3)Gal(b1-4)GlcNAc
# In short: as §1
# [36] = target: Neu5Ac(a2-3)Gal(b1-4)GlcNAc(b1-3)Gal(b1-4)GlcNAc(b1-2)Man(a1-3)[Neu5Ac(a2-3)Gal(b1-4)GlcNAc(b1-3)Gal(b1-4)GlcNAc(b1-2)Man(a1-6)]Man(b1-4)GlcNAc(b1-4)GlcNAc
# In short: as §1
# [37] = target: Neu5Ac(a2-3)Gal(b1-4)GlcNAc(b1-3)Gal(b1-4)GlcNAc(b1-3)Gal(b1-4)GlcNAc
# In short: as §1
# [38] = target: Neu5Ac(a2-3)Gal(b1-4)GlcNAc(b1-3)Gal(b1-4)GlcNAc(b1-3)Gal(b1-4)GlcNAc(b1-2)Man(a1-3)[Neu5Ac(a2-3)Gal(b1-4)GlcNAc(b1-3)Gal(b1-4)GlcNAc(b1-3)Gal(b1-4)GlcNAc(b1-2)Man(a1-6)]GalNAc
# In short: as §1
# [39] = target: Neu5Ac(a2-3)Gal(b1-4)GlcNAc(b1-3)Gal(b1-4)GlcNAc(b1-3)GalNAc
# In short: as §1
# [40] = target: Neu5Ac(a2-3)Gal(b1-4)GlcNAc(b1-3)Gal(b1-4)GlcNAc(b1-3)[Neu5Ac(a2-3)Gal(b1-4)GlcNAc(b1-3)Gal(b1-4)GlcNAc(b1-6)]GalNAc
# In short: as §1
# [41] = target: Neu5Ac(a2-3)Gal(b1-4)GlcNAc(b1-3)Gal(b1-4)GlcNAc(b1-6)[Gal(b1-3)]GalNAc
# In short: as §1
# [42] = target: Neu5Ac(a2-3)Gal(b1-4)GlcNAc(b1-3)Gal(b1-4)[Fuc(a1-3)]GlcNAc
# In short: as §1
# [43] = target: Neu5Ac(a2-3)Gal(b1-4)GlcNAc(b1-3)GalNAc
# In short: as §1
# [44] = target: Neu5Ac(a2-3)Gal(b1-4)GlcNAc(b1-3)[Neu5Ac(a2-3)Gal(b1-4)GlcNAc(b1-6)]GalNAc
# In short: as §1
binder,measurement,setting,value
B1,glycan array binding signal (z-score),[1],-0.559
same,glycan array binding signal (z-score),[2],0.587
same,glycan array binding signal (z-score),[3],0.958
same,glycan array binding signal (z-score),[4],0.003
same,glycan array binding signal (z-score),[5],-1.47
same,glycan array binding signal (z-score),[6],0.231
same,glycan array binding signal (z-score),[7],0.129
same,glycan array binding signal (z-score),[8],0.241
same,glycan array binding signal (z-score),[9],-1.16
same,glycan array binding signal (z-score),[10],0.074
same,glycan array binding signal (z-score),[11],-0.565
same,glycan array binding signal (z-score),[12],-1.12
same,glycan array binding signal (z-score),[13],-1.77
same,glycan array binding signal (z-score),[14],-0.765
same,glycan array binding signal (z-score),[15],1.36
same,glycan array binding signal (z-score),[16],0.502
same,glycan array binding signal (z-score),[17],-0.038
same,glycan array binding signal (z-score),[18],1.28
same,glycan array binding signal (z-score),[19],1.81
same,glycan array binding signal (z-score),[20],0.062
same,glycan array binding signal (z-score),[21],-0.204
same,glycan array binding signal (z-score),[22],2.18
same,glycan array binding signal (z-score),[23],0.022
same,glycan array binding signal (z-score),Neu5Ac(a2-3)Gal(b1-4)Glc,0.467
same,glycan array binding signal (z-score),[24],0.765
same,glycan array binding signal (z-score),[25],1.67
same,glycan array binding signal (z-score),[26],-0.146
same,glycan array binding signal (z-score),[27],0.312
same,glycan array binding signal (z-score),[28],-0.096
same,glycan array binding signal (z-score),[29],-1.42
same,glycan array binding signal (z-score),[30],0.191
same,glycan array binding signal (z-score),[31],-0.064
same,glycan array binding signal (z-score),[32],0.462
same,glycan array binding signal (z-score),[33],-0.718
same,glycan array binding signal (z-score),[34],-0.358
same,glycan array binding signal (z-score),[35],1.89
same,glycan array binding signal (z-score),[36],-0.047
same,glycan array binding signal (z-score),[37],-0.929
same,glycan array binding signal (z-score),[38],1.85
same,glycan array binding signal (z-score),[39],-0.893
same,glycan array binding signal (z-score),[40],-0.177
same,glycan array binding signal (z-score),[41],-0.097
same,glycan array binding signal (z-score),[42],-0.737
same,glycan array binding signal (z-score),[43],0.873
same,glycan array binding signal (z-score),[44],-1.23

# As a short view, part of the list above:
binder,measurement,setting,value
B1,glycan array binding signal (z-score),[19],1.81
same,glycan array binding signal (z-score),[20],0.062
same,glycan array binding signal (z-score),[21],-0.204
